Results from patent publication US20240239894A1, “THERAPEUTIC BINDING MOLECULES” (MedImmune Limited, priority 2020, published 2024).
These are yes or no findings as the source states them, for the method shown.

Biological target: huMOG1 (human)
Test: ELISA

binding | Binder
no binding | ZY0EQD-E02 murine IgG1 (antibody, V domains shown) VH: QVQLQQWGAGLLKPSETLSLTCAVYGGSFSGYYWNWIRQPPGKGLEWIGEINHSGSTSYNPSLKSRVTISVDTSKNQFSLKLSSVTAADTAVYYCARVLYNWNVDSWGQGTLVTVSS VL: DIQMTQSPSSLSASVGDRVTITCRASQDIRNDVGWYQQKPGKAPKRLIYAASRLQSGVPSRFSGSGSGTEFTLTISSLQPEDFATYYCLQHNSYPRTFGQGTKVEIK
no binding | ZY0EPQ-E02 human IgG1-TM (antibody, V domains shown) VH: QVQLQQWGAGLLKPSETLSLTCAVYGGSFSGYYWNWIRQPPGKGLEWIGEINHSGSTNYNPSLKSRVTILVDTSKNQFSLKLSSVTAADTAVYYCARNLYNWNLDSWGQGTLVTVSS VL: DIQMTQSPSSLSASVGDRVTITCRASQGIRNDLGWYQQKPGRAPKRLIYVASSLQSGVPSRFSGSGSGTEFTLTISSLQPEDFATYYCLQHNSYPRTFGQGTKVEIK
no binding | ZY0EP0-C07 murine IgG1 (antibody, V domains shown) VH: QVQLVESGGVLVKPGGSLRLSCAASGFTLSDYYMSWIRQAPGMGLEWVSYISSSGSTIYYTDSVKGRFTISRDSAKNSLYLQMNSLRAEDTAVYYCARDGVGFDYWGQGTLVTVSS VL: EIVLTQSPGTLSLFPGERATLSCRASQSVSSSYLAWYQQKPGQSPRLLIYAASSRATGIPDRFSGSGSGTDFTLTISRLEPEDFAVYYCQQYGSSPLYTFGQGTKLEIK
no binding | ZY0EO5-E07 human IgG1-TM (antibody, V domains shown) VH: QVQLQESGPGLVKPSQTLSLTCTVSGGSISSGGYYWSWIRQHPGKGLEWIGNIYYSGSTYYNPSLKSRVTISVDTSKNQFSLKLSSVTAADTAVYYCAREKALASVIPSGYENYYVVDVWGQGTTVTVSS VL: DIQLTQSPSFLSASVGGRVTITCWASQGIAGYLAWYQQKPGKAPKLLIYAASTLQSGVPSRFSGSGSGTEFTLTISSLQPEDFATYYCQHLNSYPLTFGGGTKVEIK

Second part, the binder before the results:

Binder | binding
ZY0EPQ-E02 murine IgG1 (antibody, V domains shown) VH: QVQLQQWGAGLLKPSETLSLTCAVYGGSFSGYYWNWIRQPPGKGLEWIGEINHSGSTNYNPSLKSRVTILVDTSKNQFSLKLSSVTAADTAVYYCARNLYNWNLDSWGQGTLVTVSS VL: DIQMTQSPSSLSASVGDRVTITCRASQGIRNDLGWYQQKPGRAPKRLIYVASSLQSGVPSRFSGSGSGTEFTLTISSLQPEDFATYYCLQHNSYPRTFGQGTKVEIK | no binding
ZY0EQD-E02 human IgG1-TM (antibody, V domains shown) VH: QVQLQQWGAGLLKPSETLSLTCAVYGGSFSGYYWNWIRQPPGKGLEWIGEINHSGSTSYNPSLKSRVTISVDTSKNQFSLKLSSVTAADTAVYYCARVLYNWNVDSWGQGTLVTVSS VL: DIQMTQSPSSLSASVGDRVTITCRASQDIRNDVGWYQQKPGKAPKRLIYAASRLQSGVPSRFSGSGSGTEFTLTISSLQPEDFATYYCLQHNSYPRTFGQGTKVEIK | no binding
ZY0EP0-C07 human IgG1-TM (antibody, V domains shown) VH: QVQLVESGGVLVKPGGSLRLSCAASGFTLSDYYMSWIRQAPGMGLEWVSYISSSGSTIYYTDSVKGRFTISRDSAKNSLYLQMNSLRAEDTAVYYCARDGVGFDYWGQGTLVTVSS VL: EIVLTQSPGTLSLFPGERATLSCRASQSVSSSYLAWYQQKPGQSPRLLIYAASSRATGIPDRFSGSGSGTDFTLTISRLEPEDFAVYYCQQYGSSPLYTFGQGTKLEIK | no binding
ZY0EOB-F05 human IgG1-TM (antibody, V domains shown) VH: QVQLQESGPGLVKPSQTLSLTCTVSDGSISSGGYYWSWIRQHPGKGLEWIGNIYYSGSTYYNPSLKSRVTISVDTSKNQFSLKLNSVTAADTAVYYCATEKALATVTPSGYENYYTVDVWGQGTTVTVSS VL: DIQLTQSPSFLSASVGDRVTITCWASQGISSYLAWYQQKPGKAPKLLIYAASTLQSGVPSRFSGSGSGTEFTLTISSLQPEDFATYYCQHLNSYPLTFGGGTKVEIK | no binding
ZY0EOB-F05 murine IgG1 (antibody, V domains shown) VH: QVQLQESGPGLVKPSQTLSLTCTVSDGSISSGGYYWSWIRQHPGKGLEWIGNIYYSGSTYYNPSLKSRVTISVDTSKNQFSLKLNSVTAADTAVYYCATEKALATVTPSGYENYYTVDVWGQGTTVTVSS VL: DIQLTQSPSFLSASVGDRVTITCWASQGISSYLAWYQQKPGKAPKLLIYAASTLQSGVPSRFSGSGSGTEFTLTISSLQPEDFATYYCQHLNSYPLTFGGGTKVEIK | no binding
ZY0EO5-E07 murine IgG1 (antibody, V domains shown) VH: QVQLQESGPGLVKPSQTLSLTCTVSGGSISSGGYYWSWIRQHPGKGLEWIGNIYYSGSTYYNPSLKSRVTISVDTSKNQFSLKLSSVTAADTAVYYCAREKALASVIPSGYENYYVVDVWGQGTTVTVSS VL: DIQLTQSPSFLSASVGGRVTITCWASQGIAGYLAWYQQKPGKAPKLLIYAASTLQSGVPSRFSGSGSGTEFTLTISSLQPEDFATYYCQHLNSYPLTFGGGTKVEIK | no binding
